Experimental data: patent publication US20250312338A1, “TREATMENT OF NEUROLOGICAL DISORDERS” (Praxis Precision Medicines, Inc., priority 2022, published 2025)
For at least one compound, name, drawing or mass did not settle the structure.

Chains of the proteins cited; added tags and fusions are not shown.
UniProt Q9UQD0, whole entry: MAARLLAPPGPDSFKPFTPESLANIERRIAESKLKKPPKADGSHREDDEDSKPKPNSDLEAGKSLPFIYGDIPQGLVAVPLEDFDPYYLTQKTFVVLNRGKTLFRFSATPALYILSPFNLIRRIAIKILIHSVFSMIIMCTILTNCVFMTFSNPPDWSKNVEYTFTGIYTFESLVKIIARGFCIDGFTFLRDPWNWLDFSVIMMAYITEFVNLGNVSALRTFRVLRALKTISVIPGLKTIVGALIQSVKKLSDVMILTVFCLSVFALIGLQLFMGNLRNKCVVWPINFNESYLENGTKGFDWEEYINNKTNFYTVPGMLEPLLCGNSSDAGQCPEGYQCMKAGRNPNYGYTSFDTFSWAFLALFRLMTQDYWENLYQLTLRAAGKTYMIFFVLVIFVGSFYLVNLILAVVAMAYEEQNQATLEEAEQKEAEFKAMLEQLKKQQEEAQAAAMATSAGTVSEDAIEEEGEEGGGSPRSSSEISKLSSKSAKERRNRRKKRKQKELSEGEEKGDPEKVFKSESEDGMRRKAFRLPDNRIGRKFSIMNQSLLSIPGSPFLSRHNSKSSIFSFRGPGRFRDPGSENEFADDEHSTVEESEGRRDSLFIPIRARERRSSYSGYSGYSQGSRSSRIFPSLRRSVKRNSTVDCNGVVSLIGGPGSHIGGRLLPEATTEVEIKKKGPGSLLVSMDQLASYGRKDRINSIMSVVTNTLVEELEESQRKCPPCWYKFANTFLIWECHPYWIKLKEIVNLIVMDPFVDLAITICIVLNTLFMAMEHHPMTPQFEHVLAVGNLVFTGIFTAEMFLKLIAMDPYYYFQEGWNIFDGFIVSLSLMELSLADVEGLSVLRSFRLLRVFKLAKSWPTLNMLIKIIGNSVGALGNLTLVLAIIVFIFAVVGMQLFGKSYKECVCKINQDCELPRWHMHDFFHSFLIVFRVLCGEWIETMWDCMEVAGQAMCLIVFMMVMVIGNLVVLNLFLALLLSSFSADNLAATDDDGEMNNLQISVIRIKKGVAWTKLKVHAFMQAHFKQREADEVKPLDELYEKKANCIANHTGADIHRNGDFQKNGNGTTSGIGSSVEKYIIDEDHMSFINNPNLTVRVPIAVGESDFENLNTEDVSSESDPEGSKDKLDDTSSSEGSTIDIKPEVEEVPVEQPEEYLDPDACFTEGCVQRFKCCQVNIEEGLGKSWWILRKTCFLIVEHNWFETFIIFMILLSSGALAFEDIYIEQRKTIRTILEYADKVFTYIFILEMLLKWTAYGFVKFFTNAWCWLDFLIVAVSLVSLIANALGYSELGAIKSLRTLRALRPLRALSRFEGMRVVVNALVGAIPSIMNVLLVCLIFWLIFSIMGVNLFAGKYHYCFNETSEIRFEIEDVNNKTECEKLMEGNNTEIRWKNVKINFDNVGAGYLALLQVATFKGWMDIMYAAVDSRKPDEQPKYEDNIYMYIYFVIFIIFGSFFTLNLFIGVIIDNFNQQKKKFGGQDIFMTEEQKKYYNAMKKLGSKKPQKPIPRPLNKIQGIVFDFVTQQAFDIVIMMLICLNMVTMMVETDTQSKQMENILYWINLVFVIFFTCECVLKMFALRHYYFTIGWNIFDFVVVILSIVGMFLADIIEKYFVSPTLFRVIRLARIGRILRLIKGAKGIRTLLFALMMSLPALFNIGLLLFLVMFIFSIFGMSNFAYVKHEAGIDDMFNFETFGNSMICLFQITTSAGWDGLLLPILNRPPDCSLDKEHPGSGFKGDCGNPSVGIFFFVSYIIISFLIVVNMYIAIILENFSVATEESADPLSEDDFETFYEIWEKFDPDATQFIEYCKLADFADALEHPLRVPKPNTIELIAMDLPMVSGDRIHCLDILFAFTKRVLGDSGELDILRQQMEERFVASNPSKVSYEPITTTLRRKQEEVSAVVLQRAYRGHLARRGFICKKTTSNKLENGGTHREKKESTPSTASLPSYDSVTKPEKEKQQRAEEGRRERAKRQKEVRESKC

What was measured:
human NaV1.6 [1] = biological target: T1, human NaV1.6 (Homo sapiens, UniProt Q9UQD0); assay: Late (persistent) INa block, ATX-II activated, PatchXpress patch clamp; format: cell-based; conditions: hNaV1.6, all assay conditions
T1 construct: HEK-293 cell lines stably expressing either human NaV1.6 (NP_055006); expressed in transfected cells

human NaV1.6 [2] = biological target: T1, human NaV1.6; assay: Peak INa use dependent block (UDB-10 Hz), PatchXpress patch clamp; format: cell-based; conditions: hNaV1.6
hNaV1.6 = biological target: T2, hNaV1.6 (Homo sapiens, UniProt Q9UQD0); assay: hNaV1.6 steady-state inactivation and activation curves (V1/2 shift); format: cell-based; conditions: DMSO control -1.3 mV
T2 construct: HEK-293 cell lines stably expressing either human NaV1.6 (NP_055006); expressed in transfected cells

N1768D (D/+) mice = assay: Audiogenic induced seizures in Scn8a^N1768D/+ mice; format: in vivo, mouse

CCOC(F)(F)c1nnc2cnc(-c3cnc(OCC(F)(F)F)c(F)c3)cn12 [Compound 1]
preference for persistent INa relative to peak INa (in words) (human NaV1.6 [1]): preference for persistent INa | Ratio to Peak INa (TB) (TB / UDB-10 Hz) (human NaV1.6 [2]): 31 | shift in V1/2 of the activation curve (hNaV1.6; 0.3 μmol/L): −2.3 mV | shift in V1/2 of the activation curve (hNaV1.6; 1 μmol/L): −2.7 mV | protection from audiogenic seizures (N1768D (D/+) mice; 10 mg/kg p.o.): complete protection | inhibition of audiogenic seizures (N1768D (D/+) mice; 1, 3, 10 mg/kg p.o., 1 hour before testing): dose dependent inhibition | protection from seizures, Scn8a DEE mouse model (FIG. 14B) (N1768D (D/+) mice; N1768D mutation): completely block seizures
